# Screening data, single-dose tests

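Assay of Toxoplasma gondii numbers, read through their beta-galactosidase reporter with a colour substrate. Concentration: 50 µM. The record gives no direction; the compounds picked for IC50 retests had high values, so higher reads as fewer parasites. Of about 18,000 compounds tested this way, about 170 (0.94%) reached 50% or more in at least one test.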

The filed quantity is “Percent Effect” (%).
The record does not define 0% and 100%; most values in the screen are far below 50% and negative numbers occur (in some assays of this library far below -100).
This is an unselected part of the compounds tested.

compound,Percent Effect
CCN1CCCC(C)(C(=O)NCCc2nnc(C)s2)C1 (configuration not stated),6.164
CC1CCCCN1CCNC(=O)c1ccoc1 (configuration not stated),21.46
Cc1cnccc1NCCNC(=O)[C@H]1CCC[C@H](O)C1,-11.82
C[C@H](O)CNC(=O)c1ccc(OCC(F)F)cc1,-0.5017
Cc1cccnc1NCCNC(=O)CCNS(C)(=O)=O,-3.187
Cc1nnc(SCCO)s1,43.03
O=C(C1CCC1)N(Cc1ccccn1)C1CC1,6.649
CC1CN(S(=O)(=O)CCCS(=O)(=O)N(C)C)CCN1 (configuration not stated),-10.58
COC(=O)C(C)(C)CNC(=O)c1cc(C#N)c[nH]1,0.5676
CC(C)OCCCNCCC#N,39.56
CC(=O)NCCc1ccc(OC(F)F)cc1,-0.8307
CC(C)C(NCCCF)C(=O)N1CCOCC1 (configuration not stated),-0.8779
CNC(=O)NC(=O)CSc1nc(C)c(C)c(C)c1C#N,15.83
Cn1cc(NC(=O)CNc2ccccc2Cl)cn1,-9.711
CCN(Cc1ccc(Cl)s1)C(=O)COC,6.962
COC(=O)c1ccc(C(=O)Nc2ccc(C)cn2)nc1,-38
COC[C@@H]1CCCN1Cc1cc2n(n1)CCNC2,22.4
CCCn1cnnc1CN(C)Cc1nnc(C)o1,6.538
CC1CCS(=O)(=O)CCN1CC(=O)NCC1CCC1 (configuration not stated),7.97
NS(=O)(=O)CCc1ccc(F)cc1,-6.949
Cc1cc(NC(=O)NCC2CCN(C(C)C)C2)n(C)n1 (configuration not stated),7.316
O=C(CCn1cc(Br)cn1)NCc1cccs1,18.99
CC(C)N(CCN)C1CC1,5.688
CS(=O)(=O)c1ccccc1C(=O)NCC1CCCO1 (configuration not stated),-15.03
COc1ccc(CN2C[C@H](O)[C@@H](N(C)C)C2)c(C)c1C,-9.149
CC(C)(C)N(CCS(C)(=O)=O)C(=O)c1ccc(Cl)cn1,7.815
CC(=O)N1CCCCCC1C1CCNCC1 (configuration not stated),-20.88
Cc1cnn(CC(=O)NC2CCc3c(O)cccc32)c1 (configuration not stated),4.706
C[C@@H](O)c1ccc(-n2cncn2)cc1,8.723
COCCNC(=O)C(C)N(C)CC(C)C (configuration not stated),-7.958
Cc1cnc(NC(=O)NCc2ccnn2C)c(Br)c1,4.6
Cc1cnccc1CCN,-12.57
Cc1oc(C)c(C(=O)NCCCN(C)S(C)(=O)=O)c1C,-3.907
COC(=O)c1cnn(CC(=O)NC2CCCC2)c1,-4.477
CCOCCN1CCCC(CNS(=O)(=O)C(C)C)C1 (configuration not stated),3.207
CN1CCCN(C(=O)COc2ccccc2)CC1,-9.111
O=C(NCCOc1cccc2cccnc12)C1CC1,-7.301
O=C(NCc1n[nH]c(=O)[nH]1)C1COc2ccccc21 (configuration not stated),-1.703
CC(C)(C)CC1CCCN1S(N)(=O)=O (configuration not stated),-15.84
CC(=O)N1CCC(OCCOc2ccccc2)CC1,0.6762
O=C(NCC1CCCO1)c1nc(-c2ccccc2)no1 (configuration not stated),-3.245
Cc1nc(N)nc(N)c1I,-11.21
COCCNC(=O)NCCN1CCc2sccc2C1,-14.65
Cc1cc(C)c(C(=O)NCC(O)C2CCCC2)c(=O)[nH]1 (configuration not stated),0.9566
CN(CC(=O)Nc1ccccc1F)CC(=O)N(C)C,-2.989
Cc1cc2nc(CN)[nH]c2cc1C,-11.64

3 of the entries, repeated:

* Cc1oc(C)c(C(=O)NCCCN(C)S(C)(=O)=O)c1C : -3.907%
* CC(C)C(NCCCF)C(=O)N1CCOCC1 (configuration not stated) : -0.8779%
* CC(C)(C)CC1CCCN1S(N)(=O)=O (configuration not stated) : -15.84%

The values are deposited in ChEMBL (CHEMBL3988442, “University of Dundee, Small-Polar-MMV Screening Library” (2021)).